Article PMC4299599, “Quantification of cytosolic interactions identifies Ede1 oligomers as key organizers of endocytosis” (Molecular Systems Biology, 2014)
No constants are given. Whether binding was seen depends on the method and setting. Sequences can lack the tags named with a protein.

How the values were obtained:
Assay in all cases: condition: detection range of FCCS: apparent KD up to ~1 μM; fluorescence cross-correlation spectroscopy (FCCS); living yeast cells, observation volume in the cytoplasm; one protein tagged with (3)myeGFP/eGFP and the other with 3mCherry in the same strain; apparent (effective) KD; interactions up to ~1 μM detectable
Yap1802 (S. cerevisiae) = target: T1, Yap1802 (S. cerevisiae) (UniProt P53309)
T1 sequence: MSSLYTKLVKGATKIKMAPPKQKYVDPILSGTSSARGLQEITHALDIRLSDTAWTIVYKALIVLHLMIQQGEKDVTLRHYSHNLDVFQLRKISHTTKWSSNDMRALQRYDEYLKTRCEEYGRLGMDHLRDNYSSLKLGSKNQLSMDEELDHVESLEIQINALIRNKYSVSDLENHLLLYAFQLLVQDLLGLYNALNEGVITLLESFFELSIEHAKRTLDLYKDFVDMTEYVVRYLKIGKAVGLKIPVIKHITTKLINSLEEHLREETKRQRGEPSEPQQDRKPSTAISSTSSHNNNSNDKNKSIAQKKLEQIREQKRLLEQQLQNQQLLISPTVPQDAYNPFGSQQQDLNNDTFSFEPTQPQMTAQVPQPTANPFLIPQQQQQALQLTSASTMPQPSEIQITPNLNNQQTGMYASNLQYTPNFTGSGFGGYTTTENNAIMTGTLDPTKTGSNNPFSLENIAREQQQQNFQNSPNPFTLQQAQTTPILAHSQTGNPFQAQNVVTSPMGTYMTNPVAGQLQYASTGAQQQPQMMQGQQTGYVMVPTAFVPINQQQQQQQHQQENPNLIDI

End3 (S. cerevisiae) = target: T2, End3 (S. cerevisiae) (UniProt P39013)
T2 sequence: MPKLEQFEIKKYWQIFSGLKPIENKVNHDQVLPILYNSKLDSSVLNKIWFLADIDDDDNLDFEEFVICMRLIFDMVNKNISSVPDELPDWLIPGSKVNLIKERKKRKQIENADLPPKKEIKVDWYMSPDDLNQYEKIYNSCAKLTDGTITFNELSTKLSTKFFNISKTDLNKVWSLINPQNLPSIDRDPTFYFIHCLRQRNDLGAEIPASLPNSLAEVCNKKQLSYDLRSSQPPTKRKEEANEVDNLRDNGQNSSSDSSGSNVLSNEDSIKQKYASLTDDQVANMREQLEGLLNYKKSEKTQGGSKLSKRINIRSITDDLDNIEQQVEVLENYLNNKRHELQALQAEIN

Ent1 (S. cerevisiae) = target: T3, Ent1 (S. cerevisiae) (UniProt Q12518)
T3 sequence: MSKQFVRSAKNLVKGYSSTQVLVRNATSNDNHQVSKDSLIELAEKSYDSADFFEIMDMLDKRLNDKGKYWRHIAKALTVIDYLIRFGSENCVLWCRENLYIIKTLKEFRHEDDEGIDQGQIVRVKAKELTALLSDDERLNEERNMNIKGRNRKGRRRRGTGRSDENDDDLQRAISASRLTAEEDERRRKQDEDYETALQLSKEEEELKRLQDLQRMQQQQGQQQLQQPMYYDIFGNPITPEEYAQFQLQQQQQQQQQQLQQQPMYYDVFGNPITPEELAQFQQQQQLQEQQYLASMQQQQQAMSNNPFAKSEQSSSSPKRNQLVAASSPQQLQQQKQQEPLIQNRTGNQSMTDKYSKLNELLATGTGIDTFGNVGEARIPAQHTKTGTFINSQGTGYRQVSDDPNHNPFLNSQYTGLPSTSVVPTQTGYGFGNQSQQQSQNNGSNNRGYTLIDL

Measured: binding

B1: Ede1 (Ede1-3myeGFP / Ede1-3mCherry) (natural protein, S. cerevisiae, UniProt P34216 1-1381, looked up)
chain: MASITFRTPLSSQEQAFYNQKFHQLDTEDLGVVTGEAVRPLFASSGLPGQLLSQVWATVDIDNKGFLNLNEFSAALRMIAQLQNAPNQPISAALYESTPTQLASFSINQNPAPMQSGSATGNTNNTDIPALSSNDIAKFSQLFDRTAKGAQTVAGDKAKDIFLKARLPNQTLGEIWALCDRDASGVLDKSEFIMAMYLIQLCMSHHPSMNTPPAVLPTQLWDSIRLEPVVVNQPNRTTPLSANSTGVSSLTRHSTISRLSTGAFSNAASDWSLSFEKKQQFDAIFDSLDKQHAGSLSSAVLVPFFLSSRLNQETLATIWDLADIHNNAEFTKLEFAIAMFLIQKKNAGVELPDVIPNELLQSPALGLYPPNPLPQQQSAPQIAIPSRASKPSLQDMPHQVSAPAVNTQPTVPQVLPQNSNNGSLNDLLALNPSFSSPSPTKAQTVVQNNTNNSFSYDNNNGQATLQQQQPQQPPPLTHSSSGLKKFTPTSNFGQSIIKEEPEEQEQLRESSDTFSAQPPPVPKHASSPVKRTASTTLPQVPNFSVFSMPAGAATSAATGAAVGAAVGAAALGASAFSRSSNNAFKNQDLFADGEASAQLSNATTEMANLSNQVNSLSKQASITNDKKSRATQELKRVTEMKNSIQIKLNNLRSTHDQNVKQTEQLEAQVLQVNKENETLAQQLAVSEANYHAAESKLNELTTDLQESQTKNAELKEQITNLNSMTASLQSQLNEKQQQVKQERSMVDVNSKQLELNQVTVANLQKEIDGLGEKISVYLTKQKELNDYQKTVEEQHAQLQAKYQDLSNKDTDLTDREKQLEERNRQIEEQENLYHQHVSKLQEMFDDLSQRKASFEKADQELKERNIEYANNVRELSERQMNLAMGQLPEDAKDIIAKSASNTDTTTKEATSRGNVHEDTVSKFVETTVENSNLNVNRVKDDEEKTERTESDVFDRDVPTLGSQSDSENANTNNGTQSGNETANPNLTETLSDRFDGDLNEYGIPRSQSLTSSVANNAPQSVRDDVELPETLEERDTINNTANRDNTGNLSHIPGEWEATPATASTDVLSNETTEVIEDGSTTKRANSNEDGESVSSIQESPKISAQPKAKTINEEFPPIQELHIDESDSSSSDDDEFEDTREIPSATVKTLQTPYNAQPTSSLEIHTEQVIKYPAPGTSPSHNEGNSKKASTNSILPVKDEFDDEFAGLEQAAVEEDNGADSESEFENVANAGSMEQFETIDHKDLDDELQMNAFTGTLTSSSNPTIPKPQVQQQSTSDPAQVSNDEWDEIFAGFGNSKAEPTKVATPSIPQQPIPLKNDPIVDASLSKGPIVNRGVATTPKSLAVEELSGMGFTEEEAHNALEKCNWDLEAATNFLLDSA
notes: Ede1, S. cerevisiae, homolog of mammalian Eps15; expressed from its own locus; also called wild-type Ede1; full-length Ede1; source: S. cerevisiae, chromosomally tagged at the endogenous locus, in living cells; not shown: 3myeGFP, C-terminal, kept; 3mCherry, C-terminal, kept
no binding: Yap1802 (S. cerevisiae) | End3 (S. cerevisiae) | Ent1 (S. cerevisiae)
